Four substances from publication PMC9103030 can be followed below.

Results are given in words; binding and its absence hold for the method and conditions named. For some assays here: A result given as binding can be weak or reduced; the word gives no strength.

What all share (assay): two-hybrid; each of 13 full-length OsJAZs as BD (bait, left column) and AD (prey, top row) fusion; yeast Y2HGold; growth on SD/-Leu/-Trp/-His/-Ade; graded strong (++), weak (+), undetectable (-)
The target of one assay is T1, OsJAZ12 (rice) (UniProt Q7XEZ1).
T1 sequence: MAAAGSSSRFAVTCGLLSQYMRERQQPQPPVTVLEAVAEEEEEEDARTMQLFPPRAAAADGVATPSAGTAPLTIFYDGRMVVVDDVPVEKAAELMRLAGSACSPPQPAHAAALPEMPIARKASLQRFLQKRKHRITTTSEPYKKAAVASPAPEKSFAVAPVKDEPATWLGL

The target in a further assay is T2, OsJAZ8 (rice) (UniProt Q69P94).
T2 sequence: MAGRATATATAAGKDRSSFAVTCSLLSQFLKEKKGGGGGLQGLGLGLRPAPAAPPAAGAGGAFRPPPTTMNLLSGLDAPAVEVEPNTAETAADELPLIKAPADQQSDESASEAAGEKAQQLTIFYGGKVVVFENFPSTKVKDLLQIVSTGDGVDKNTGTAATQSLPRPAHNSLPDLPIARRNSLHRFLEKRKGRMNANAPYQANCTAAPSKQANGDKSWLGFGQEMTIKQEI

The next assay addresses T3, OsJAZ7 (rice) (UniProt Q8H395).
T3 sequence: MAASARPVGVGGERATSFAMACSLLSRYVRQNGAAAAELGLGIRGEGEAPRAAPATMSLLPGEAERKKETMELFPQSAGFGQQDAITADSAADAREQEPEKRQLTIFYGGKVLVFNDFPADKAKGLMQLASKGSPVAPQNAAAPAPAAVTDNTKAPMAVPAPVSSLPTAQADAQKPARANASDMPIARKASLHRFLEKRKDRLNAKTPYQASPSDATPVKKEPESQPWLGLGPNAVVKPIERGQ

For a further assay, the target named is T4, OsJAZ1 (rice) (UniProt Q7XPM8).
T4 sequence: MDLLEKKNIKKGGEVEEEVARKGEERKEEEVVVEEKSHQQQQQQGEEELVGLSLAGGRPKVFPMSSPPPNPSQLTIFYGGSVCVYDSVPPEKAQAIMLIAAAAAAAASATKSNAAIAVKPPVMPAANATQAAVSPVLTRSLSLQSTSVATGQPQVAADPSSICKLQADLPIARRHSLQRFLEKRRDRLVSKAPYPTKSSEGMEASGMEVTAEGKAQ

The next assay has as its target T5, OsJAZ6 (rice) (UniProt Q84R94).
T5 sequence: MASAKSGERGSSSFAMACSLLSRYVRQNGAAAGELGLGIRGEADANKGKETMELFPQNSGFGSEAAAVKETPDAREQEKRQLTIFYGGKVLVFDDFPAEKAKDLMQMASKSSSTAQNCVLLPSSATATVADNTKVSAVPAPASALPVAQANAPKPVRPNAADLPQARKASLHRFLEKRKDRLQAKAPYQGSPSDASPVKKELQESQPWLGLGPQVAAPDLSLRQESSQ

The target of the next assay is T6, OsJAZ4 (rice) (UniProt Q6ES51).
T6 sequence: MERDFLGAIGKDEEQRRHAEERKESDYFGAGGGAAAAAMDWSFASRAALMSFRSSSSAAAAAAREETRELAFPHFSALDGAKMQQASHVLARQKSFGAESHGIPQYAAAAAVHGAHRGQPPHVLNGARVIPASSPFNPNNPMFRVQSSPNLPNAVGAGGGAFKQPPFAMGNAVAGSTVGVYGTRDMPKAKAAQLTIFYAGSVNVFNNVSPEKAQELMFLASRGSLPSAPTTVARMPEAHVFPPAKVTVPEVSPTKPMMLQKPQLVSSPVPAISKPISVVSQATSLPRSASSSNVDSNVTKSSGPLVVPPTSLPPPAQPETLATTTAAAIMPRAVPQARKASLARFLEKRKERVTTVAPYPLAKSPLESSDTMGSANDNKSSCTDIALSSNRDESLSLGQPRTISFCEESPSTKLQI

Another assay has as its target T7, OsJAZ3 (rice) (UniProt Q6ZJU3).
T7 sequence: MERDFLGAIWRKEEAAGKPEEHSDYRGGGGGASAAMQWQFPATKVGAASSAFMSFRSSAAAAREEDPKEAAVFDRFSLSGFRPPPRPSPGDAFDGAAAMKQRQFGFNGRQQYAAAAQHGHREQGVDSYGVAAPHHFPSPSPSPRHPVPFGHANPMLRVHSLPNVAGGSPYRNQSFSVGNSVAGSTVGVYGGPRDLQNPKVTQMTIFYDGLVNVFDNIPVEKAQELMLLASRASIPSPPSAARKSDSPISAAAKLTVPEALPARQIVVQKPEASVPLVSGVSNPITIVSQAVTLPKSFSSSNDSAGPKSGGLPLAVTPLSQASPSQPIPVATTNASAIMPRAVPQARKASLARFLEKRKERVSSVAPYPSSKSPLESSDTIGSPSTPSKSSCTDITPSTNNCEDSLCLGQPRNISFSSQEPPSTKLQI

In another assay the target is T8, OsJAZ9 (rice) (UniProt Q8GSI0).
T8 sequence: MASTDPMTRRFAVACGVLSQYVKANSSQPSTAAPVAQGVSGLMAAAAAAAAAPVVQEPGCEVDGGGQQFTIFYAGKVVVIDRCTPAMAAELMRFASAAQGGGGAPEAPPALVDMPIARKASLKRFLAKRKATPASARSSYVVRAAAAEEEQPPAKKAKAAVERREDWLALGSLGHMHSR

The target of another assay is T9, OsJAZ5 (rice) (UniProt Q7XV97).
T9 sequence: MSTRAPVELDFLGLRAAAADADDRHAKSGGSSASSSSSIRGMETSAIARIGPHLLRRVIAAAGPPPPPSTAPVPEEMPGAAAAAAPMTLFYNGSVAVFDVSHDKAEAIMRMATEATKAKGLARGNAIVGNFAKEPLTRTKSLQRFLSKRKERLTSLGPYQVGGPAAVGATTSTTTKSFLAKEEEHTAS

In the case of OsJAZ4-2 (rice), the binding result is “binds” with OsJAZ12 (rice), “no binding” with OsJAZ8 (rice), “binds weakly” in the assay with OsJAZ7 (rice) and “no binding” with OsJAZ1 (rice).
As to OsJAZ10 (rice), the binding entry with OsJAZ6 (rice) is on record as “binds”; in the assay with OsJAZ8 (rice) it was “no binding”; with OsJAZ4 (rice), “binds”; in the assay with OsJAZ7 (rice), “binds”; with OsJAZ1 (rice) it was “binds”; in the assay with OsJAZ3 (rice), “binds”.
Regarding OsJAZ11 (rice), the binding result with OsJAZ12 (rice) was “no binding”; with OsJAZ6 (rice) it was “binds”; in the assay with OsJAZ8 (rice), “no binding”; with OsJAZ4 (rice), “binds”; with OsJAZ7 (rice) it was “binds”; with OsJAZ1 (rice) it was “binds”. The binding result with OsJAZ9 (rice) and in the assay with OsJAZ3 (rice) was “no binding” throughout.
Take OsJAZ13 (rice): the binding result in the assay with OsJAZ12 (rice), in the assay with OsJAZ6 (rice), with OsJAZ5 (rice), in the assay with OsJAZ1 (rice) and with OsJAZ9 (rice) was “no binding” each time.
